# These are yes or no findings as the source states them, for the method shown. For some assays here: Binding seen in cells or lysates may run through a third protein. Some binding calls cover weakened binding; strength is not graded here. Where a sequence is shown, tags or fusion partners need not be part of it.
# B1: DrRecA (RecA of Deinococcus radiodurans) fused to the T18 or T25 domain of adenylate cyclase, BACTH construct (protein, UniProt P42443 1-363)
# chain: MSKDATKEISAPTDAKERSKAIETAMSQIEKAFGKGSIMKLGAESKLDVQVVSTGSLSLDLALGVGGIPRGRITEIYGPESGGKTTLALAIVAQAQKAGGTCAFIDAEHALDPVYARALGVNTDELLVSQPDNGEQALEIMELLVRSGAIDVVVVDSVAALTPRAEIEGDMGDSLPGLQARLMSQALRKLTAILSKTGTAAIFINQVREKIGVMYGNPETTTGGRALKFYASVRLDVRKIGQPTKVGNDAVANTVKIKTVKNKVAAPFKEVELALVYGKGFDQLSDLVGLAADMDIIKKAGSFYSYGDERIGQGKEKTIAYIAERPEMEQEIRDRVMAAIRAGNAGEAPALAPAPAAPEAAEA
# B2: Recombinant PprA, wild type, purified (natural protein, D. radiodurans, UniProt O32504 1-300, looked up)
# chain: MLPLAFLICSGHNKGSMARAKAKDQTDGIYAAFDTLMSTAGVDSQIAALAASEADAGTLDAALTQSLQEAQGRWGLGLHHLRHEARLTDDGDIEILTDGRPSARVSEGFGALAQAYAPMQALDERGLSQWAALGEGYRAPGDLPLAQLKVLIEHARDFETDWSAGRGETFQRVWRKGDTLFVEVARPASAEAALSDAAWDVIASIKDRAFQRELMRRSEKDGMLGALLGARHAGAKANLAQLPEAHFTVQAFVQTLSGAAARNAEEYRAALKTAAAALEEYQGVTTRQLSEVLRHGLRES
# notes: PprA of Deinococcus radiodurans, from plasmid pETpprA constructed earlier (Rajpurohit and Misra, 2013); His tag removed with Factor-Xa; also called PprA^wt; pETpprA; source: E. coli BL21(DE3) pLysS, purified (Ni-chelating Sepharose, Q-sepharose, Heparin, Superdex-200)
# B3: T18 tagged DrRecA expressed in D. radiodurans (protein, UniProt P42443 1-363)
# chain: B1 chain
# B4: poly His-tagged DrRecA expressed in D. radiodurans (protein, UniProt P42443 1-363)
# chain: B1 chain
# Tests used:
# [1] = target: T1, DrRecA (RecA of Deinococcus radiodurans) fused to the T18 or T25 domain of adenylate cyclase, BACTH construct (D. radiodurans) (UniProt P42443); experiment: two-hybrid; bacterial two-hybrid (BACTH) in E. coli BTH101, T18 and T25 tags at the C-terminus; white-blue colonies on X-Gal/IPTG plates at 30°C and β-galactosidase activity in liquid culture (Miller units)
# T1 sequence: B1 chain
# [2] = target: T2, PprA of Deinococcus radiodurans fused to the T18 or T25 domain of adenylate cyclase, BACTH construct (D. radiodurans) (UniProt O32504); experiment: as above
# T2 sequence: B2 chain
# [3] = target: T3, poly His-tagged PprA expressed in D. radiodurans (D. radiodurans) (UniProt O32504); experiment: co-IP; cell-free extracts of D. radiodurans co-expressing T18 tagged and His tagged proteins; immunoprecipitation with anti-His or anti-T18 antibody, immunoblot with the other antibody
# T3 sequence: B2 chain
# [4] = target: T4, T18 tagged PprA expressed in D. radiodurans (D. radiodurans) (UniProt O32504); experiment: as above
# T4 sequence: B2 chain
binder,measurement,setting,value
B1,binding,[1],binds
same,binding,[2],binds
B2,binding,[1],binds
B3,binding,[3],binds
B4,binding,[4],binds
